Measured values from PubChem BioAssay AID504467 (National Center for Advancing Translational Sciences (NCATS), 2011).
Out of some 330,000 compounds screened, about 7,700 (2.3%) were called active. Inconclusive results, whose numbers are uncertain, are shown with a selection of clear calls. Calls follow the shape of the dose curve; as a rule, active = well fitted inhibition curve with a large enough effect; inconclusive = small, poorly fitted or top-dose-only effect, or effect the other way; inactive = flat fitted curve, though single readings scatter. Where the call is inconclusive, the potency comes from a doubtful curve fit.

experiment: qHTS screen for small molecules that inhibit ELG1-dependent DNA repair in human embryonic kidney (HEK293T) cells expressing luciferase-tagged ELG1; settings: HEK293T ELG1-luciferase reporter, luminescence, 16 h, DNA damage induced by 5-fluorouridine; activity change, negative = inhibition: at 46.1 µM (top of the series); also: nearly all actives have a fitted effect of over 55% in size
How it was run: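 Overnight (16 hr) co-exposure of 2,000 cells/well to 5-fluorouridine and compound at 37 °C preceded detection. Luciferase was quantified via ONE-Glo luminescence; loss of signal denotes inhibition.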
% is scaled to controls: 0 for no effect and ±100 for the full control effect; potency is read from the fitted curve at half-maximal effect.

Row | Structure (SMILES) | Potency | activity change, negative = inhibition
1 | CC(C)Sc1n[nH]c2nc3c(c(=O)n12)C1(CCCC1)Cc1ccccc1-3 | inactive | –
2 | CCCn1c2ccccc2c2cnn(CC(=O)OC)c(=O)c21 | inactive | –
3 | O=C(CCCc1ccccc1)Nc1ccccc1[N+](=O)[O-] | inconclusive: 9.2 µM [activator, partial curve, poor fit] | –
4 | Cc1ccccc1Cn1ccc(=NCc2ccccc2)cc1 | inconclusive: 10.3 µM [inhibitor, partial curve] | –
5 | Cc1cc(OC(F)F)ccc1NC(=O)Nc1ccc([N+](=O)[O-])cc1 | inconclusive: 25.9 µM [inhibitor, partial curve, poor fit] | –
6 | Cc1[nH]c(=O)[nH]c(=O)c1/C=C/C(=O)O | inactive | –
7 | O=c1ccsn1Cc1ccccc1 | inactive | –
8 | COC(=O)c1cc(S(=O)(=O)N2CCCC(C)C2)c[nH]1 (configuration not stated) | inactive | –
9 | COc1ccccc1OCCSc1nnnn1-c1ccc(C)cc1 | inconclusive: 16.4 µM [activator, partial curve] | –
10 | Cc1csc2ncnc(NC3CCN(Cc4ccccc4)CC3)c12 | inactive | –
11 | CC(=O)c1ccc(NC(=O)C2CC(=O)N(Cc3ccccc3)C2)cc1 (configuration not stated) | inconclusive: 14.6 µM [activator, partial curve] | –
12 | O=C(N[C@@H]1C/C=C\C[C@@H](CC(=O)N(CCO)Cc2ccccc2)C(=O)N[C@@H](c2ccccc2)COC1=O)OCC1c2ccccc2-c2ccccc21 | inactive | –
13 | O=C(COC(=O)C(Cc1ccccc1)NC(=O)c1ccc(Cl)cc1)c1ccc(Cl)cc1 (configuration not stated) | inactive | –
14 | CCCC(=O)Nc1cccc(-c2cn3cccnc3n2)c1 | inconclusive: 20.6 µM [activator, single point] | –
15 | COC(=O)c1cccc(NC(=S)NCc2ccco2)c1 | inactive | –
16 | CCOc1cc(NC(=S)Nc2cccc(OC)c2)c(OCC)cc1NC(=O)C(C)C | inconclusive: 35.5 µM [inhibitor, single point] | –
17 | Cn1nc(C(=O)NCc2ccc(F)cc2)cc1C(=O)NCc1ccc(F)cc1 | inconclusive: 29.1 µM [inhibitor, single point] | –
18 | COc1cc(CN2CCC(CO)(CCOc3ccccc3)CC2)cc(OC)c1 | inconclusive: 0.116 µM [inhibitor, full curve, poor fit] | –
19 | CCC(=O)NCCc1nc2cc(NC(=O)c3ccc(F)cc3)ccc2n1C | inconclusive: 7.3 µM [activator, partial curve] | –
20 | N#Cc1ccc(NC(=O)COC(=O)C2Cc3ccccc3CN2C(=O)c2ccccc2)cc1 (configuration not stated) | active: 10.3 µM | –
21 | CCOC(=O)C1=CN(Cc2cccc(F)c2)S(=O)(=O)NC1c1ccc(F)c(Cl)c1 (configuration not stated) | – | inconclusive: 52.2% [activator]
22 | Cc1c([N+](=O)[O-])cc(C(=O)Nc2ccc(Cc3ccncc3)cc2)cc1[N+](=O)[O-] | active: 10.3 µM | –
23 | Cc1cc(NC(=O)/C=C/c2ccccc2)c(C(C)C)cc1O | inconclusive: 20.6 µM [inhibitor, partial curve, poor fit] | –
24 | CCCN1C(=O)/C(=C/c2ccc3c(c2)OCO3)NC1=S | inconclusive: 7.3 µM [inhibitor, single point] | –

Row | Structure (SMILES) | Potency | activity change, negative = inhibition
25 | COCC(C)N=C1NN=C(c2cc(C)n(Cc3ccccc3Cl)c2C)CS1 (configuration not stated) | inconclusive: 3.26 µM [activator, single point] | –
26 | N#Cc1ccccc1OCC(=O)OCC(=O)N1CCCC1 | inconclusive: 6.51 µM [activator, partial curve, poor fit] | –
27 | COc1cccc(NC(=O)CCNC(=O)c2ccccc2Cl)c1 | inactive | –
28 | O=C(N/N=C/c1cc(Cl)cc([N+](=O)[O-])c1O)C(O)(c1ccccc1)c1ccccc1 | active: 16.4 µM | –
29 | COc1ccc(OC)c(C(c2nnnn2C2CCCC2)N2CCN(c3ccc(F)cc3)CC2)c1 (configuration not stated) | inactive | –
30 | Clc1cccc(-c2ccc3ncnc(NCc4cccs4)c3c2)c1 | inconclusive: 29.1 µM [inhibitor, single point] | –
31 | Cc1cc(-c2ccc(Cl)cc2)n2nc(N)nc2n1 | inconclusive: 29.1 µM [activator, single point] | –
32 | O=C(COc1ccc2ccccc2c1)N1CCN(C(=O)c2ccco2)CC1 | – | inconclusive: 1.58% [activator]
33 | CNC(=S)N(CCc1ccc(OC)c(OC)c1)Cc1cc2c(C)cc(C)cc2[nH]c1=O | inconclusive: 20.6 µM [inhibitor, partial curve, poor fit] | –
34 | CC(C)Oc1ccc(S(=O)(=O)N2CCOCC2)cc1NC(=O)C1=COCCO1 | inactive | –
35 | CC(=O)c1c(C)[nH]c(C(=O)CSc2nnc(-c3ccc(Cl)cc3)n2CC2CCCO2)c1C (configuration not stated) | inconclusive: 29.1 µM [inhibitor, single point] | –
36 | CC1CCCN(C(=O)c2cccc(S(=O)(=O)N3CCCc4ccccc43)c2)C1 (configuration not stated) | inactive | –
37 | O=C(Nc1nnc(SCc2ccc(Cl)cc2)s1)c1ccco1 | inactive | –
38 | COc1ccc(C2OC34CCCCC3C(C#N)(C#N)C2(C#N)C(=N)O4)cc1 (configuration not stated) | inactive | –
39 | CCCN1CCN(CCCNC(=O)c2cc3c(=O)n(C)c4ccccc4c3n2C)CC1 | inconclusive: 14.6 µM [activator, partial curve] | –
40 | Cc1ccc(S(=O)(=O)Nc2nc(-c3ccc(F)cc3)cs2)cc1 | inactive | –
41 | Cc1ccc(OCn2c(=O)sc3ccccc32)cc1 | inconclusive: 25.9 µM [activator, single point] | –
42 | C/C(=N\NC(=O)c1cc(C)oc1C)c1ccc(N2CCOCC2)cc1 | inconclusive: 23.1 µM [activator, partial curve, poor fit] | –
43 | O=C(CC1Oc2ccccc2NC1=O)NCc1ccccc1 (configuration not stated) | inactive | –
44 | Fc1ccc(-n2nnnc2-c2cnc(-c3cccs3)nc2C(F)(F)F)cc1 | active: 20.6 µM | –
45 | COc1cc(NC(=O)c2cc3c(C)nc4ccccc4c3o2)cc(OC)c1OC | active: 7.31 µM | –
46 | Cc1ccccc1/C=N/N=C1/NC(=O)CCS1 | inconclusive: 16.4 µM [activator, partial curve] | –
47 | Nn1nnc2ccccc21 | inactive | –
48 | CC(C)c1ccc(NC(=O)NN2CCOCC2)cc1 | inconclusive: 16.4 µM [activator, partial curve] | –

Entries 45 to 46 from above:
Row | Structure (SMILES) | Potency | activity change, negative = inhibition
45 | COc1cc(NC(=O)c2cc3c(C)nc4ccccc4c3o2)cc(OC)c1OC | active: 7.31 µM | –
46 | Cc1ccccc1/C=N/N=C1/NC(=O)CCS1 | inconclusive: 16.4 µM [activator, partial curve] | –

2 compounds drawn at random from the list so far, as already listed:
Row | Structure (SMILES) | Potency | activity change, negative = inhibition
20 | N#Cc1ccc(NC(=O)COC(=O)C2Cc3ccccc3CN2C(=O)c2ccccc2)cc1 (configuration not stated) | active: 10.3 µM | –
32 | O=C(COc1ccc2ccccc2c1)N1CCN(C(=O)c2ccco2)CC1 | – | inconclusive: 1.58% [activator]

Following part.

Row | Structure (SMILES) | Potency | activity change, negative = inhibition
49 | CC(C)c1ccc(C2C3CSCC=C3C(C#N)=C(N)C2(C#N)C#N)cc1 (configuration not stated) | inconclusive: 23.1 µM [inhibitor, single point] | –
50 | COc1ccc(CN2c3c(Br)cccc3C(=O)CS2(=O)=O)cc1 | inactive | –
51 | CN1CCN(C2=C(Cl)C(=O)C(c3cnc(N4CCCCC4)s3)=C(Cl)C2=O)CC1 | inactive | –
52 | CCCc1nc(SCC(=O)c2ccc(OC)cc2)c2c(=O)n(C)c(=O)n(C)c2n1 | inactive | –
53 | Clc1ccc(CONc2ncnc3nonc23)c(Cl)c1 | inconclusive: 16.4 µM [inhibitor, single point] | –
54 | S=C(NCCc1ccncc1)Nc1ccccc1 | inactive | –
55 | Cc1ccc(C2CC(c3cccs3)=NN2C(=O)CCl)cc1 (configuration not stated) | inconclusive: 29.1 µM [activator, single point] | –
56 | CC(=O)c1ccc(NC(=O)CSc2nc(Nc3ccccc3)nc(N3CCOCC3)n2)cc1 | active: 5.8 µM | –
57 | CC1=CC2=NC(=O)/C(=C\c3cccn3CCOc3ccc(C)c(C)c3)C(=N)N2O1 | active: 18.4 µM | –
58 | O=C(/C=C/c1ccc(Cl)cc1)N1CCN(c2c(Cl)cccc2[N+](=O)[O-])CC1 | inconclusive: 32.6 µM [inhibitor, single point] | –
59 | O=C(Nc1nc2ccc(S(=O)(=O)N3CCOCC3)cc2s1)c1cccs1 | inactive | –
60 | Cc1cccc(-n2ncc3c(N4CCCC4)ncnc32)c1 | inconclusive: 0.92 µM [activator, partial curve] | –
61 | Cc1ccc(NC(=O)CSc2nc3c(c(=O)[nH]2)CN(Cc2ccc(F)cc2)CC3)cc1C | inconclusive: 14.6 µM [activator, partial curve, poor fit] | –
62 | CC(C)(C)[C@@H]1COC(=O)[C@H](Cc2ccc(F)cc2)CC/C=C\C[C@H](CC(=O)N(CCO)Cc2ccccc2)C(=O)N1 | inconclusive: 18.3 µM [inhibitor, partial curve] | –
63 | CC(C)(C)C1CCc2c(sc(NC(=O)c3cccs3)c2C(=O)N2CCCCC2)C1 (configuration not stated) | inconclusive: 29.1 µM [inhibitor, single point] | –
64 | CC(C)(ONC(=O)Nc1ccccc1Cl)C(=O)O | inconclusive: 4.61 µM [inhibitor, single point] | –
65 | O=C(/C=C/c1cccs1)NNC(=O)c1cccc([N+](=O)[O-])c1 | inconclusive: 18.3 µM [activator, partial curve, poor fit] | –
66 | Cc1ccc(S(=O)(=O)c2cnc(-c3ccccc3)nc2N2CCN(C)CC2)cc1 | inactive | –
67 | COc1ccc(-c2nc(CS(=O)(=O)CC(=O)NCCc3cc(OC)ccc3OC)c(C)o2)cc1 | inconclusive: 22.4 µM [inhibitor, single point] | –
68 | COc1ccc(OCc2cccc(C(=O)Nn3cc([N+](=O)[O-])cn3)c2)cc1 | inconclusive: 29.1 µM [inhibitor, single point] | –
69 | CCOc1ccc(CNC(=O)Cn2ccc3cc(S(=O)(=O)N4CCCCCC4)ccc32)cc1 | inconclusive: 18.3 µM [inhibitor, single point] | –
70 | Cc1cc(C(=O)COC(=O)c2ccccc2O)c(C)n1Cc1cccs1 | inconclusive: 0.116 µM [activator, full curve, poor fit] | –
71 | CCNC(=S)NN=C1c2ccccc2-c2ccccc21 | inconclusive: 16.4 µM [inhibitor, single point] | –
72 | CN1C(=O)CC(C(=O)Nc2ccc(F)cc2)SC1=Nc1ccc2c(c1)OCO2 (configuration not stated) | inconclusive: 29.1 µM [inhibitor, single point] | –
